Reference: PubChem BioAssay AID1487 (National Center for Advancing Translational Sciences (NCATS), 2009)
The other results are listed elsewhere or left out. These are further read-outs of the screen, such as a control signal, another cell line or another target. No call is given for them. The list favours compounds with an active or inconclusive main result. Potencies come from curve fits of mixed quality, noted in brackets.

Test: qHTS Assay for Modulators of Lamin A Splicing
Settings: HeLa LMNA splicing GFP/RFP minigene ratio, 48 h
Procedure, shortened: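 S3 HeLa cells stably expressing lamin A-EGFP splicing minigene plus DsRed2, 600 cells/well, 48 h compound exposure at 37C. Laser-scanning cytometry; analysed as GFP (500-530 nm)/RFP (575-640 nm) total intensity ratio; 0.5% DMSO vehicle.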

[1] = measured here: RFP viability control channel
[2] = measured here: GFP splicing reporter channel

SMILES	AC50 [1]	AC50 [2]
CCCCN(CCCNC(=O)CN1C(=O)COc2ccccc21)c1ccccc1	35.5 µM [rising, single point]	
Cc1ccc(CSC2=Nc3ccccc3C3=NC(CC(=O)NCc4cccs4)C(=O)N23)cc1 (configuration not stated)	14.1 µM [rising, single point]	35.5 µM [rising, single point]
CN(C)c1ccc(NC(=O)CN2CCN(CC(=O)Nc3ccc(Br)cc3)CC2)cc1	35.5 µM [falling, single point]	35.5 µM [falling, single point]
Cc1c(C(=O)Nc2ccc(F)cc2)oc2ccc(S(=O)(=O)N3CCC4(CC3)OCCO4)cc12	11.2 µM [rising, partial curve]	
CCCCSC1=N/C(=C/c2ccsc2)C(=O)N1c1ccccc1	14.1 µM [rising, single point]	
Oc1cccc(/C=N/c2c(-c3ccco3)nc3ccccn23)c1		35.5 µM [rising, partial curve, poor fit]
COc1ccc(Nc2nccc3c2nnn3C)cc1	31.6 µM [rising, single point]	
CCN(CC)c1ccc(/C=N/NC(=O)c2c(Cl)cnn2C)c(O)c1	5.62 µM [rising, full curve]	
C[C@H]1C[C@@H]2[C@H]3CCC4=CC(=O)C=C[C@@]4(C)[C@@]3(Cl)[C@@H](O)C[C@]2(C)[C@]1(OC(=O)c1ccco1)C(=O)CCl	5.62 µM [falling, partial curve, poor fit]	4.47 µM [falling, partial curve, poor fit]
Cc1c(-c2ccccc2)c(=O)oc2c(CN3CCCC3)c(O)ccc12	31.6 µM [falling, partial curve]	
Cc1nc2ccn(Cc3ccccc3)c(=O)c2cc1C(=O)NCc1ccccc1F	0.447 µM [rising, full curve]	
COc1ccc(/C=C2\CCc3ccccc3C2=O)c(OC)c1OC		35.5 µM [falling, single point]
Cc1cc(C)cc(NC(=O)N2CCCN(c3c(Cl)cncc3Cl)CC2)c1	0.02 µM [falling, full curve, poor fit]	0.0447 µM [falling, full curve, poor fit]
CC(C)(C)OC(=O)N[C@@H](CC(=O)OCc1ccccc1)C(=O)O	0.126 µM [falling, full curve, poor fit]	
COC(=O)/C(=C\c1ccc([N+](=O)[O-])o1)NC(=O)c1ccccc1	15.8 µM [falling, partial curve, poor fit]	12.6 µM [falling, single point]
Cc1cc(NC(=O)CSc2nc3c(c(=O)n2-c2ccccc2)SC(C)C3)no1 (configuration not stated)	12.6 µM [rising, single point]	
CC1Cc2ccccc2N1C(=O)CSc1nccc(=O)[nH]1 (configuration not stated)		35.5 µM [rising, single point]
CC(C(O)c1ccc(O)cc1)N1CCC(Cc2ccccc2)CC1 (configuration not stated)	35.5 µM [rising, single point]	
COc1ccc(-n2c(C)cc(C(=O)CSc3nn4c(=O)c(C(C)(C)C)nnc4s3)c2C)cc1	11.2 µM [rising, single point]	11.2 µM [rising, single point]
CN1CCCN(C(=O)C2CCC(C(=O)N3CCCN(C)CC3)CC2)CC1 (configuration not stated)		7.08 µM [falling, partial curve, poor fit]
NC(=O)c1sc2nc(-c3ccco3)ccc2c1N	3.55 µM [falling, partial curve, poor fit]	11.2 µM [falling, partial curve, poor fit]
Cn1ncc(Cl)c1C(=O)NCc1cc(C(C)(C)C)n[nH]1	31.6 µM [rising, single point]	7.94 µM [rising, partial curve]
CCn1c2ccccc2c2cc(/C=N/NC(=O)c3ccc(O)cc3)ccc21		35.5 µM [falling, single point]
Cc1nnc(SCC(=O)NC23CC4CC(CC(C4)C2)C3)n(N)c1=O	0.00398 µM [falling, full curve, poor fit]	
O=C(O)Cc1n[nH]c(=O)c2ccccc12	7.08 µM [rising, full curve, poor fit]	
CCOC(=O)C1=C(C)NC2=C(C(=O)CC(c3cccs3)C2)C1c1cccs1 (configuration not stated)	31.6 µM [rising, single point]	
COc1ccc(-c2nnc(Nc3nc4c(OC)cccc4s3)o2)cc1		35.5 µM [falling, single point]
CCCc1cc(=O)[nH]c(SCC(=O)c2cc(C)n(CCC)c2C)n1	12.6 µM [rising, partial curve, poor fit]	
Fc1ccc(N2CCN(C(c3cccs3)c3nnnn3CCc3ccccc3)CC2)cc1 (configuration not stated)	35.5 µM [rising, single point]	

2 of the compounds above, bar-delimited.
SMILES | AC50 [1] | AC50 [2]
C[C@H]1C[C@@H]2[C@H]3CCC4=CC(=O)C=C[C@@]4(C)[C@@]3(Cl)[C@@H](O)C[C@]2(C)[C@]1(OC(=O)c1ccco1)C(=O)CCl | 5.62 µM [falling, partial curve, poor fit] | 4.47 µM [falling, partial curve, poor fit]
CN1CCCN(C(=O)C2CCC(C(=O)N3CCCN(C)CC3)CC2)CC1 (configuration not stated) |  | 7.08 µM [falling, partial curve, poor fit]
